Experimental data: patent publication US7351790 (dated 2008)

Test: general procedure: Fmoc solid-phase peptide synthesis; O-Bis-(aminoethyl)ethylene glycol trityl resin; HBTU
Conditions: whole synthesis

**Q.** For “ClCH2CO-Lys (Hexanoyl)-Cys(tBu)-Arg-Gly-Asp-Cys(tBu)-Phe-Cys-Gly-NH—(CH2CH2O)2CH2CH2NH2”, which crude mass (scale 0.1 mmol) is on record?
**A.** 100 mg

**Q.** With “ClCH2CO-Lys(PEG2000)-Cys(tBu)-Arg-Gly-Asp-Cys(tBu)-Phe-Cys-Gly-NH—(CH2CH2O)2CH2CH2NH2” as the substance, how does the crude mass (scale 0.1 mmol) read?
**A.** 110 mg

**Q.** Which crude mass (scale 0.25 mmol) does the source give for “ClCH2CONH-Asp-Cys(MBzl)-Arg-Gly-Asp-Cys(MBzl)-Phe-Cys-Gly-NH—(CH2CH2O)2CH2CH2NH2” here?
**A.** 250 mg
